In paper PMC12674617:
These are yes or no findings as the source states them, for the method shown. Binding seen in cells or lysates may run through a third protein. Some entries that bind do so weakly or less than the wild type.

Sequences of proteins named here, by UniProt entry; tags and fusion partners are left off. A change or cut given only in a name is not applied to a line headed by its entry.
UniProt Q8TD16: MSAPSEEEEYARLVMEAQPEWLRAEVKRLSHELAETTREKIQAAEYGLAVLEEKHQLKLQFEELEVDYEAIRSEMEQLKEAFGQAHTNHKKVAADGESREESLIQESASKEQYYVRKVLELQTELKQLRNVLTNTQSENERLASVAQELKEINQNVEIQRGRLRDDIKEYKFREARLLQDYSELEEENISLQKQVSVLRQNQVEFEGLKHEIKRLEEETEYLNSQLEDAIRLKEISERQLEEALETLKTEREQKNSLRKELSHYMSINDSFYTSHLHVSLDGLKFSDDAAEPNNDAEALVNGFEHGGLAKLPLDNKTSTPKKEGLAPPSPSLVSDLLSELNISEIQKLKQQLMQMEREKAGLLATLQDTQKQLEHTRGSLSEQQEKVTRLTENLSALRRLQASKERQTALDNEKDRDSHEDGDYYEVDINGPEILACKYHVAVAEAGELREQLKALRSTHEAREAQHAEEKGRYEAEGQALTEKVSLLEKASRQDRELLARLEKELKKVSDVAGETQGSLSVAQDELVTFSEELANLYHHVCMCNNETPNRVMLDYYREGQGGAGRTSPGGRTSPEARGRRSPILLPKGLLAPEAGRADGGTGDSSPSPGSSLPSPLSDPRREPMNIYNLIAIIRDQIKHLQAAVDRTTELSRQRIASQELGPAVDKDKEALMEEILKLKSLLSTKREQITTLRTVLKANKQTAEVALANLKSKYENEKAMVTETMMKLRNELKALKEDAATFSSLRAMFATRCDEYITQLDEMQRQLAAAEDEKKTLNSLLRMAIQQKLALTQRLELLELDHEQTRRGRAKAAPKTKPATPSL
UniProt Q14203: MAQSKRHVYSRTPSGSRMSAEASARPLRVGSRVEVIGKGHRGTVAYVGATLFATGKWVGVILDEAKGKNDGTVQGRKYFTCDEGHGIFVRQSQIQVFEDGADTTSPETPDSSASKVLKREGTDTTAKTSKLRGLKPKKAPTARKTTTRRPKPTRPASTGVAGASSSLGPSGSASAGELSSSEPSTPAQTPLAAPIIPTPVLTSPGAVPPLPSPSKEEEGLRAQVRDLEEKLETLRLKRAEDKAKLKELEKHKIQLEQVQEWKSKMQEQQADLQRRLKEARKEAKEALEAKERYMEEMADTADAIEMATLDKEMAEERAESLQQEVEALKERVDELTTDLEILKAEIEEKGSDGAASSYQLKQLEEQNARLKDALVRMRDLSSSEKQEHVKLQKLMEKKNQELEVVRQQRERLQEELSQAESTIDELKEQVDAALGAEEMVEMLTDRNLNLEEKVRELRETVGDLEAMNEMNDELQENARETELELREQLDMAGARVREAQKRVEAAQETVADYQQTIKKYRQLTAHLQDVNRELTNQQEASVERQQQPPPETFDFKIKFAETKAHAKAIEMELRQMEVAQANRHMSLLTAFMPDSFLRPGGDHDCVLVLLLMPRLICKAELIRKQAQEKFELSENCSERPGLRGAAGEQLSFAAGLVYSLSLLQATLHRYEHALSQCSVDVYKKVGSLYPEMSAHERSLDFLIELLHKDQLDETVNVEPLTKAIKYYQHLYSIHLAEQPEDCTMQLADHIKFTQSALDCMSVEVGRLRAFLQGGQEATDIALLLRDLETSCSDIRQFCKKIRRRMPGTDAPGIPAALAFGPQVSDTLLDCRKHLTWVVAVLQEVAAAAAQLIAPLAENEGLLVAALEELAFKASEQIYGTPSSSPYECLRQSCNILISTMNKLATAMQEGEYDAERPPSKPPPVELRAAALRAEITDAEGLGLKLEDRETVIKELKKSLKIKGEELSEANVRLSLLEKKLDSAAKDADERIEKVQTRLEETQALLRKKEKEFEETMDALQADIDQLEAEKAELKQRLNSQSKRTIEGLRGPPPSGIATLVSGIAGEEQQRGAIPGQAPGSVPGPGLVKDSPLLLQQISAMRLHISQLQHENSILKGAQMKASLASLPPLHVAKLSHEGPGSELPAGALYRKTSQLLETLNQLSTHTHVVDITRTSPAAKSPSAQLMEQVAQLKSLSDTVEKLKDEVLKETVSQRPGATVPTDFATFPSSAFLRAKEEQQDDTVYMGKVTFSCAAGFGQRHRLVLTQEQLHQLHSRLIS
UniProt O14576: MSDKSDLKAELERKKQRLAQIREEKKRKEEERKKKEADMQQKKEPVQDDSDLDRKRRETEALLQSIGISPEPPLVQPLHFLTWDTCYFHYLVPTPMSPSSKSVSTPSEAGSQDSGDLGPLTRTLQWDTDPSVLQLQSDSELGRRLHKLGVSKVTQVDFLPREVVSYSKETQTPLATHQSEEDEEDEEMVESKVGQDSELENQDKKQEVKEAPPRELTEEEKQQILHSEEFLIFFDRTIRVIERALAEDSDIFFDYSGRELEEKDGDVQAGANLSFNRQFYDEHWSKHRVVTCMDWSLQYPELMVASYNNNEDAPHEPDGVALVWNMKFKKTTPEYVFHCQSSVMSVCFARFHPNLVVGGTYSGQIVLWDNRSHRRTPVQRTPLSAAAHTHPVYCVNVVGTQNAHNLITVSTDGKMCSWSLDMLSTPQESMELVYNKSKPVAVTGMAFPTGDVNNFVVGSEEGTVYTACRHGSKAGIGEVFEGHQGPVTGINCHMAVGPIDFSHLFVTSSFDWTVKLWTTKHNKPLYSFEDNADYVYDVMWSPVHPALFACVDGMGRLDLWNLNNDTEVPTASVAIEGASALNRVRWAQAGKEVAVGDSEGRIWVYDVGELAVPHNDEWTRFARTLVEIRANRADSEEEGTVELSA
UniProt P20340: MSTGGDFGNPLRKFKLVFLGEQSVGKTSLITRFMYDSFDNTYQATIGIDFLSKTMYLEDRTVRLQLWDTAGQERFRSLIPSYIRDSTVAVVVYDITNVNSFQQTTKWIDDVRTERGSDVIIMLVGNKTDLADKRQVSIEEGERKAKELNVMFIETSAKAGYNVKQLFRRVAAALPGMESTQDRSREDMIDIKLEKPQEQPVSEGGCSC

Assays:
Experiment in all cases: co-IP; HEK293 FLP-in T-Rex cells, Tet induction 1 µg/ml 24 hr; lysate in RIPA buffer, 1 mg protein, V5-Trap agarose beads 2 hr at 4 °C, four RIPA washes, western blot; also in cells treated with siRNA to endogenous BICD2
[1] = molecular target: BICD2_R694C-mTrbo (human) (UniProt Q8TD16)
[2] = molecular target: BICD2_N188T-mTrbo (human) (UniProt Q8TD16)
[3] = molecular target: full-length BICD2 tagged on the C-terminus with mini-TurboID (BICD2-mTrbo) (human) (UniProt Q8TD16)
[4] = molecular target: BICD2_R747C-mTrbo (human) (UniProt Q8TD16)

Measured: binding

Dynactin1/p150 Glued (DCTN1) (from UniProt Q14203 1-1278)
binds: all assays above

Dynein intermediate chain (DYNC1I1) (from UniProt O14576 1-645)
binds: all assays above

GTP-locked RAB6A (GFP-RAB6A Q72L) (from UniProt P20340 1-208)
binds: [3]
